Assay results reported in patent US20240400691A1 (FBD BIOLOGICS, published 2024).
No constants are given. Whether binding was seen depends on the method and setting. Some binding calls cover weakened binding; strength is not graded here.

Amino acid sequences for entries named in this document (tags omitted). Residues count along the entry.
UniProt Q9NZQ7, residues 19-290: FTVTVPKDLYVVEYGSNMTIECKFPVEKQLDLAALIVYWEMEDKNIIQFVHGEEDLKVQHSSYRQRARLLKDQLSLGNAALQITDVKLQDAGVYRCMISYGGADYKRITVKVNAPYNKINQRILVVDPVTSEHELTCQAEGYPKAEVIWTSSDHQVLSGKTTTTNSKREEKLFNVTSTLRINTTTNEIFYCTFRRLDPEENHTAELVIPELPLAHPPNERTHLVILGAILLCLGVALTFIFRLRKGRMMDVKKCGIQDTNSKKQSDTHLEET

Tests used:
human PD-L1 [1] = target: T1, human PD-L1 (human, UniProt Q9NZQ7 19-290); test: flow cytometry on PD-L1 tf CHO-S cells; positive control
T1 construct: whole, on cells; For the PD-L1 tf DLD1 cells the species of PD-L1 is not restated; also called PD-L1 tf CHO-S; PD-L1 tf DLD1

human PD-L1 [2] = target: T1, human PD-L1; test: flow cytometry on a 1:1 mixture of PD-L1 tf DLD1 cells and DLD1 cells
human PD-L1 [3] = target: T1, human PD-L1; test: flow cytometry on PD-L1 tf DLD1 cells in a 1:1 mixture with DLD1 cells, PE goat anti-human IgG [D]

- binding (human PD-L1 [1]): binds
- binding (human PD-L1 [2]): binds
- binding (human PD-L1 [3]): binds
B1: anti-PD-L1 VHH (2H4) (VHH)
VHH: QVQLVESGGGVVQPGRSLRLSCAASGGPFMSYAMGWFRQAPGKEREFVAAIRWNGISTFYADSVKGRFTISRDNSKNTLYLQMNSLRAEDTAVYYCAAAQTIVTVPENYHFDYWGQGTQVTVSS
